# This is one part of the list.
# Sequences of proteins named here, by UniProt entry; tags and fusion partners are left off. A change or cut given only in a name is not applied to a line headed by its entry.
# UniProt Q92979: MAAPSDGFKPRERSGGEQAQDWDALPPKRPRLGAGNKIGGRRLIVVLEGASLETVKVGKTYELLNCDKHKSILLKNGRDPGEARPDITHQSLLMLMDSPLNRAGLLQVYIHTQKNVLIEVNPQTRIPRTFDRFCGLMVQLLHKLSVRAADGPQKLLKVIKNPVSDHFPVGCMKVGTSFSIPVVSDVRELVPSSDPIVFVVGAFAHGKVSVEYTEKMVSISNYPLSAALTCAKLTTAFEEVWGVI
# UniProt Q9BV81: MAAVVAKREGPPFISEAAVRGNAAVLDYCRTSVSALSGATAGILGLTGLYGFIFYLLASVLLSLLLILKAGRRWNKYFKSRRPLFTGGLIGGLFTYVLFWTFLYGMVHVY
# UniProt Q05BV3: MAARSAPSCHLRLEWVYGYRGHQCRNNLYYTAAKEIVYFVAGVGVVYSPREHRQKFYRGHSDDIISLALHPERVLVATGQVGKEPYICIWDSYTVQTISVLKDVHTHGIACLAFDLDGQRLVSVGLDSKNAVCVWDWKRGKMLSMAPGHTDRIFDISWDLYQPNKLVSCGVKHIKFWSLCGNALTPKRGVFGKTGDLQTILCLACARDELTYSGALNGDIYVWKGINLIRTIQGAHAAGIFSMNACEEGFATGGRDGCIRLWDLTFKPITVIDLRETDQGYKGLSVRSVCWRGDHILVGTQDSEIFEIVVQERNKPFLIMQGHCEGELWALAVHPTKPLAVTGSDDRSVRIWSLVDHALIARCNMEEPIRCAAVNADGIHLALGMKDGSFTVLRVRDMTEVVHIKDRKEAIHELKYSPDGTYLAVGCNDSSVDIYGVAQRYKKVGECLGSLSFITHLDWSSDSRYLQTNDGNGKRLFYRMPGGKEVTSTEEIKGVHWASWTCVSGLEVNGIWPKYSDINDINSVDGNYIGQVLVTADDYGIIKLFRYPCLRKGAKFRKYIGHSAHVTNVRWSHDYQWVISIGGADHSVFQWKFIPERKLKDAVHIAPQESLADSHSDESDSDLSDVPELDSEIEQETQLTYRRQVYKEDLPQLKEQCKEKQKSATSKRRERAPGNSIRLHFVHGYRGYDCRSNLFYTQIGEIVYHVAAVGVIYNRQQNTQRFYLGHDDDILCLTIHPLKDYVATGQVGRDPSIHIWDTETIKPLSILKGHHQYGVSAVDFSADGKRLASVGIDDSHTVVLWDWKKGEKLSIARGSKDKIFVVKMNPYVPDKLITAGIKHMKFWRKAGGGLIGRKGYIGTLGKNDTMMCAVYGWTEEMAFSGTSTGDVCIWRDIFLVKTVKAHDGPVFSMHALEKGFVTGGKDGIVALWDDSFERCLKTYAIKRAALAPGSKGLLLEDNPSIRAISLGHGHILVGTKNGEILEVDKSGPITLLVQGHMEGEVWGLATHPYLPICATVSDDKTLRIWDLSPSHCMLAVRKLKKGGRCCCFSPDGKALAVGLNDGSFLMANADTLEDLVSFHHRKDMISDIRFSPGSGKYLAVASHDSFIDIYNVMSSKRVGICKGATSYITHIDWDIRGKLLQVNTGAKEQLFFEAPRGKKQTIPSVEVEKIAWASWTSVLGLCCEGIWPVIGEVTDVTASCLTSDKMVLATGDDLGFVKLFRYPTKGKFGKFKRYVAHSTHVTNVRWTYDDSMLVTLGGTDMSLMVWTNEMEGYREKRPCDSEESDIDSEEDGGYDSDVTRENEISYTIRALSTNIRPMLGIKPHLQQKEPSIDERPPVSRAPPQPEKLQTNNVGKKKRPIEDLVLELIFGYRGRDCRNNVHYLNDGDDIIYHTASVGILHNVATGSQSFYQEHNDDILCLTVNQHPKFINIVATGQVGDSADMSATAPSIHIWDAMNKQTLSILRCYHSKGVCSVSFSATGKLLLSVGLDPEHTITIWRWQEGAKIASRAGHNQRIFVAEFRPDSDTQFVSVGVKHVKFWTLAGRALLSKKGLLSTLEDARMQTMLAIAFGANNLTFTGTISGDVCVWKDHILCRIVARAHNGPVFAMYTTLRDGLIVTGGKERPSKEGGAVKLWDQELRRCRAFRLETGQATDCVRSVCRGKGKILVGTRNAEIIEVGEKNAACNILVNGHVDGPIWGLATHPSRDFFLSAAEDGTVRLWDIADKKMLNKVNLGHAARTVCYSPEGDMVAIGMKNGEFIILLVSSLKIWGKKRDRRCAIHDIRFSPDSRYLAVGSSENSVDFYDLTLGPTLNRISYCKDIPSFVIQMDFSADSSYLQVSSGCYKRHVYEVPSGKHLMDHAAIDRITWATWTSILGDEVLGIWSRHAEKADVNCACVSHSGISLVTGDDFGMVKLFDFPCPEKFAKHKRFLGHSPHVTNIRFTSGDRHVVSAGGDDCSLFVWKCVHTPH
# UniProt Q9NZN4: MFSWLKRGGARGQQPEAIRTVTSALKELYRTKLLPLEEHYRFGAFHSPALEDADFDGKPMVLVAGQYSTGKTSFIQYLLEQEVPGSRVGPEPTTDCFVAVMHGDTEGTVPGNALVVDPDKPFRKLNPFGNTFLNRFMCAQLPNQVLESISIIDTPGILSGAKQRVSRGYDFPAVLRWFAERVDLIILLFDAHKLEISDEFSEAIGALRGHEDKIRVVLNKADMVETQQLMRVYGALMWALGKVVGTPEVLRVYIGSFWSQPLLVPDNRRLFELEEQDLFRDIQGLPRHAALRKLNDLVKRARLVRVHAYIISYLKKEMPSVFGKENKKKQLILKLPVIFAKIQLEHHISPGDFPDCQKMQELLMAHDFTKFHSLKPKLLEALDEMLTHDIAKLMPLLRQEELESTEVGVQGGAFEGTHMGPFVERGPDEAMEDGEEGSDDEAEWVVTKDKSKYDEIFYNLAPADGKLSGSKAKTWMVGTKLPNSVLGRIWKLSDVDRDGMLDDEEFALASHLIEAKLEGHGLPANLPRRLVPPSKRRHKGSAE
# UniProt O43432, whole entry, looked up: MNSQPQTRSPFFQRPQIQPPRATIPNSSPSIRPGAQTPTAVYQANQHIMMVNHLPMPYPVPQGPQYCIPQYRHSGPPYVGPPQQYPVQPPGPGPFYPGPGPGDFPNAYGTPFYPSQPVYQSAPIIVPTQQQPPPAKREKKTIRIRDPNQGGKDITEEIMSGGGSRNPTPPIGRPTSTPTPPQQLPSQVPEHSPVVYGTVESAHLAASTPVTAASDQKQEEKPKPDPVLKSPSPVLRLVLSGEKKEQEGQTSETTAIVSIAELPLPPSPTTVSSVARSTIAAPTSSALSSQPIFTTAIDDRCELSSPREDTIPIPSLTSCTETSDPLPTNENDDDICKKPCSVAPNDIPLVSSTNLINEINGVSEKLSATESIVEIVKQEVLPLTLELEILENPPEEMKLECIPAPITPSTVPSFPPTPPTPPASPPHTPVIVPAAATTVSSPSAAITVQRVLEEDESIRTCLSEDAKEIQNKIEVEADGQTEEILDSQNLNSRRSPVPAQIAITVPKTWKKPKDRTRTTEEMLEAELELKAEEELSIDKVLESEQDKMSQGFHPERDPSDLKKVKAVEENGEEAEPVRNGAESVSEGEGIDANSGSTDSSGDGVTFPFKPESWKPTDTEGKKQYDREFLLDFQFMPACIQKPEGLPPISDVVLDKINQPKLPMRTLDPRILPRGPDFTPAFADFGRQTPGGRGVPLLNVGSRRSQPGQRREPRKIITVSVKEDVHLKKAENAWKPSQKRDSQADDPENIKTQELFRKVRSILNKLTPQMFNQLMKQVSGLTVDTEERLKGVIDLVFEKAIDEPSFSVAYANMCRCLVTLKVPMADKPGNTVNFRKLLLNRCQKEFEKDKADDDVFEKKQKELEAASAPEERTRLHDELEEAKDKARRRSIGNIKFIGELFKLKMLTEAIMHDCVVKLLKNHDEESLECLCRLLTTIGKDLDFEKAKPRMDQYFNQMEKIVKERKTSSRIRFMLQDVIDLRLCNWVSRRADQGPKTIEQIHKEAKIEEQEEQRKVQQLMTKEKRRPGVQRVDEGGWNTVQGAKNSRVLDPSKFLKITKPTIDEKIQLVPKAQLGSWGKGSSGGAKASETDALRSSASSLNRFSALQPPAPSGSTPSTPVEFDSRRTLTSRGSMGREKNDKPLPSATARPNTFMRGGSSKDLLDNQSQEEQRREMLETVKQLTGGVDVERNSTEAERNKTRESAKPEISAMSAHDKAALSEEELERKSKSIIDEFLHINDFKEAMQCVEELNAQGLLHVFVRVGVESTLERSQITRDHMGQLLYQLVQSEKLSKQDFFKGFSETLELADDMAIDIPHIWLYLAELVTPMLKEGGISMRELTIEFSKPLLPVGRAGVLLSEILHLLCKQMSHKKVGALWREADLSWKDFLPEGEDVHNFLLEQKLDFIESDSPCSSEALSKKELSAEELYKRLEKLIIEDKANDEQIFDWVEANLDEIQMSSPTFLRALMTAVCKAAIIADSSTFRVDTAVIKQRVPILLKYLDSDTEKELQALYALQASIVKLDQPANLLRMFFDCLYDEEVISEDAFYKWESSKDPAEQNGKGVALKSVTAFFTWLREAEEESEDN
# UniProt P29692: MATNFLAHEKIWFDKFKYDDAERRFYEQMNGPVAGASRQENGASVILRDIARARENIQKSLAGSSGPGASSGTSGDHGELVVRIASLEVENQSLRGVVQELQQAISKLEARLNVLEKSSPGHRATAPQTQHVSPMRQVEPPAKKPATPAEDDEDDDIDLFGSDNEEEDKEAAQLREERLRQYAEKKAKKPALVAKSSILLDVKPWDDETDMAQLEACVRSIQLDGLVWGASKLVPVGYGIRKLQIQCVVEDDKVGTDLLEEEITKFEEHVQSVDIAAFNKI
# UniProt P06730, whole entry, looked up: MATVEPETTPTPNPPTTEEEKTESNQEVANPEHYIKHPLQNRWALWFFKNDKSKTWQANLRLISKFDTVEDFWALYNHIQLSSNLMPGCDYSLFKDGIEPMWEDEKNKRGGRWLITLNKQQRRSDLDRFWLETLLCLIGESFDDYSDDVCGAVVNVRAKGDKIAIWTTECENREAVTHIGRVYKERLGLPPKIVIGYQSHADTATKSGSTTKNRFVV
# UniProt Q9GZT9: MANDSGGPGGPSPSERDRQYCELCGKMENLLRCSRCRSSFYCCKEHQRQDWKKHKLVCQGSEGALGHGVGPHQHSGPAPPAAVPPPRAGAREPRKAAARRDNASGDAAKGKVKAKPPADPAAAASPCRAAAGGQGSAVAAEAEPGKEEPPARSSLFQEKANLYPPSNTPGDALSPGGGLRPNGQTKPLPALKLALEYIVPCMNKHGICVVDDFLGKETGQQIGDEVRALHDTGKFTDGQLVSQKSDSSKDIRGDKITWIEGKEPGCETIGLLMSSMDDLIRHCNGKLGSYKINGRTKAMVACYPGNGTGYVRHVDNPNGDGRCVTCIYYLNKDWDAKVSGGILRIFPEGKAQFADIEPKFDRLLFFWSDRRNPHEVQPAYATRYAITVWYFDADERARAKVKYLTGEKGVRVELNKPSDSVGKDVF
# UniProt Q9NYP7: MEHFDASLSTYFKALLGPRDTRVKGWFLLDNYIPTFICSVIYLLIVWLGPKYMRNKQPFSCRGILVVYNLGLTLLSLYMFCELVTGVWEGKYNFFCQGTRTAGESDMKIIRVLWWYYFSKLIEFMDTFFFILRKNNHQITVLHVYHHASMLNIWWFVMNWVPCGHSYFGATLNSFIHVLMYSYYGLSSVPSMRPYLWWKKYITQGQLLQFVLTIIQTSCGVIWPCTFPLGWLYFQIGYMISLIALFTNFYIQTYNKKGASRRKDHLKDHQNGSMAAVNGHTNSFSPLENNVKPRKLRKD
# UniProt Q15369, whole entry, looked up: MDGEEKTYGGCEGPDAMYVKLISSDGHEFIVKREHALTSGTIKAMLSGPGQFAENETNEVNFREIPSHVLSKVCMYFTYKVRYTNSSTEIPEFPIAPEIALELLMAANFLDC
# UniProt Q9UI10, whole entry, looked up: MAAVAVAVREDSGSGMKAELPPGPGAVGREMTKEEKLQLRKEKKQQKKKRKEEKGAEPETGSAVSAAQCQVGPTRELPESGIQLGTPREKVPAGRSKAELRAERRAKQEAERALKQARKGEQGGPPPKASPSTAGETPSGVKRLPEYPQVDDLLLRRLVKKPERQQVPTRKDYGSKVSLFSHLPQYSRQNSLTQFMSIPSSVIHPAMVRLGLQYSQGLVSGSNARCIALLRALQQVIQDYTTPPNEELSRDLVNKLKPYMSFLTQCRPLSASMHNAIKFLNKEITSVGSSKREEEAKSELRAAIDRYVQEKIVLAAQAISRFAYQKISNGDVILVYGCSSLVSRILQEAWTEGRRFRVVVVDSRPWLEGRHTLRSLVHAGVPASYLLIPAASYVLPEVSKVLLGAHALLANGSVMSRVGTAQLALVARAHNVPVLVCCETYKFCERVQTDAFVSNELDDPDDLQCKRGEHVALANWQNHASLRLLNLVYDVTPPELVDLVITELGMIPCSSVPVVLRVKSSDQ
# Legend:
# Test in all cases: log2 fold change, soluble protein after heating vs DMSO (PISA); higher = thermal stabilisation; K562 cells, 10 uM, 30 min; active = over 0.2 and 3.5 SD of the protein, either way, in both replicates (recomputed)
# saracatinib = compound: CN1CCN(CCOc2cc(OC3CCOCC3)c3c(Nc4c(Cl)ccc5c4OCO5)ncnc3c2)CC1 [saracatinib]
# Procedure, shortened: (§1)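 For each measurement, 10 μM compound was applied for 30 min to K562 cells at 2×10^6 cells/mL. Aliquots were heated for 3 min across 48°C-58°C, pooled, and extracted in PBS with 0.5% NP-40 at 4°C; the supernatant after 21,000xg for 90 min was soluble protein. This was quantified by TMTpro 16plex LC-MS/MS with channel sums equalised, and thermal stability was reported relative to control samples from duplicates, on a log2 fold-change scale.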
# sotrastaurin = compound: CN1CCN(c2nc(C3=C(c4c[nH]c5ccccc45)C(=O)NC3=O)c3ccccc3n2)CC1 [sotrastaurin]
# Procedure, shortened: as §1
# alvocidib = compound: CN1CC[C@H](c2c(O)cc(O)c3c(=O)cc(-c4ccccc4Cl)oc23)[C@H](O)C1 [alvocidib]
# Procedure, shortened: as §1
# Tubastatin A = compound: CN1CCc2c(c3ccccc3n2Cc2ccc(C(=O)NO)cc2)C1 [Tubastatin A]
# Procedure, shortened: as §1
# [1] = compound: CNC(=O)C1=CC=CC=C1NC2=NC(=NC=C2Cl)NC3=C(C=C(C=C3)N4CCOCC4)OC
# Procedure, shortened: as §1
# defactinib = compound: CNC(=O)c1ccc(Nc2ncc(C(F)(F)F)c(NCc3nccnc3N(C)S(C)(=O)=O)n2)cc1 [defactinib]
# Procedure, shortened: as §1
# rucaparib = compound: CNCc1ccc(-c2[nH]c3cc(F)cc4c3c2CCNC4=O)cc1 [rucaparib]
# Procedure, shortened: as §1
# [2] = compound: CNc1nc(-c2ccc3c(N)n[nH]c3c2)cc(N2C[C@@H](C(=O)NC3CCCCC3)CC[C@H]2C)n1
# Procedure, shortened: as §1
# encorafenib = compound: COC(=O)N[C@@H](C)CNc1nccc(-c2cn(C(C)C)nc2-c2cc(Cl)cc(NS(C)(=O)=O)c2F)n1 [encorafenib]
# Procedure, shortened: as §1
# [3] = compound: COC(=O)[C@H](CCSC)NC(=O)C1=C(C=C(C=C1)NC[C@H](CS)N)C2=CC=CC=C2
# Procedure, shortened: as §1
# [4] = compound: COC1=CC=C(C=C1)CN2C=CC3=C2C=C(C=C3)C(=O)NO
# Procedure, shortened: as §1
# filanesib = compound: CON(C)C(=O)N1N=C(c2cc(F)ccc2F)S[C@@]1(CCCN)c1ccccc1 [filanesib]
# Procedure, shortened: as §1
# zotarolimus = compound: CO[C@H]1C[C@@H]2CC[C@@H](C)[C@@](O)(O2)C(=O)C(=O)N2CCCC[C@H]2C(=O)O[C@H]([C@H](C)C[C@@H]2CC[C@H](n3cnnn3)[C@H](OC)C2)CC(=O)[C@H](C)/C=C(\C)[C@@H](O)[C@@H](OC)C(=O)[C@H](C)C[C@H](C)/C=C/C=C/C=C/1C [zotarolimus]
# Procedure, shortened: as §1
# idasanutlin = compound: COc1cc(C(=O)O)ccc1NC(=O)[C@@H]1N[C@@H](CC(C)(C)C)[C@](C#N)(c2ccc(Cl)cc2F)[C@H]1c1cccc(Cl)c1F [idasanutlin]
# Procedure, shortened: as §1
# alisertib = compound: COc1cc(Nc2ncc3c(n2)-c2ccc(Cl)cc2C(c2c(F)cccc2OC)=NC3)ccc1C(=O)O [alisertib]
# Procedure, shortened: as §1
# [5] = compound: COc1cc2nc(-c3cc(F)ccc3O)nc(N[C@@H]3CNC[C@H]3C(C)(C)O)c2cc1OC
# Procedure, shortened: as §1
# gefitinib = compound: COc1cc2ncnc(Nc3ccc(F)c(Cl)c3)c2cc1OCCCN1CCOCC1 [gefitinib]
# Procedure, shortened: as §1
# [6] = compound: COc1cccc2cc(-c3nc([C@H]4CC[C@H](C(=O)O)CC4)n4ncnc(N)c34)[nH]c12
# Procedure, shortened: as §1
# lapatinib = compound: CS(=O)(=O)CCNCc1ccc(-c2ccc3ncnc(Nc4ccc(OCc5cccc(F)c5)c(Cl)c4)c3c2)o1 [lapatinib]
# Procedure, shortened: as §1
# pictilisib = compound: CS(=O)(=O)N1CCN(Cc2cc3nc(-c4cccc5[nH]ncc45)nc(N4CCOCC4)c3s2)CC1 [pictilisib]
# Procedure, shortened: as §1
Target,log2 fold change (saracatinib),log2 fold change (sotrastaurin),log2 fold change (alvocidib),log2 fold change (Tubastatin A),log2 fold change [1],log2 fold change (defactinib),log2 fold change (rucaparib),log2 fold change [2],log2 fold change (encorafenib),log2 fold change [3],log2 fold change [4],log2 fold change (filanesib),log2 fold change (zotarolimus),log2 fold change (idasanutlin),log2 fold change (alisertib),log2 fold change [5],log2 fold change (gefitinib),log2 fold change [6],log2 fold change (lapatinib),log2 fold change (pictilisib)
EMG1 (UniProt Q92979),inactive: 0.045,inactive: -0.03,inactive: 0.127,inactive: -0.022,inactive: 0.036,inactive: 0.136,inactive: 0.146,inactive: -0.012,inactive: 0.029,inactive: -0.031,inactive: -0.051,inactive: 0.001,inactive: -0.005,inactive: 0.055,inactive: 0.012,inactive: -0.051,inactive: -0.034,inactive: -0.002,inactive: 0.035,inactive: -0.133
EIF4H (UniProt Q15056),inactive: 0.002,inactive: -0.013,inactive: -0.072,inactive: -0.01,inactive: -0.009,inactive: -0.057,inactive: -0.009,inactive: 0.011,inactive: -0.034,inactive: 0.044,inactive: 0.033,inactive: -0.014,inactive: -0.002,inactive: 0.03,inactive: -0.007,inactive: -0.022,inactive: 0.038,inactive: -0.041,inactive: -0.012,inactive: -0.014
EML3 (UniProt Q32P44),inactive: 0.144,inactive: -0.037,inactive: 0.147,inactive: 0.051,inactive: -0.045,,inactive: 0.276,inactive: -0.124,inactive: 0.222,,inactive: -0.114,inactive: 0.059,inactive: -0.031,inactive: 0.102,inactive: -0.18,inactive: 0.059,inactive: -0.093,inactive: -0.161,inactive: 0.137,inactive: -0.107
EFHD1 (UniProt Q9BUP0),inactive: 0.114,inactive: -0.073,inactive: 0.289,inactive: -0.103,,inactive: 0,,inactive: -0.399,,inactive: 0.097,,inactive: -0.05,inactive: -0.138,,,,inactive: -0.18,,,inactive: -0.06
EMC6 (UniProt Q9BV81),inactive: 0.1,inactive: -0.014,inactive: -0.032,inactive: 0.017,inactive: 0.04,inactive: 0.007,inactive: -0.058,inactive: -0.02,inactive: 0.007,inactive: -0.181,inactive: 0.146,inactive: 0.006,inactive: 0.006,inactive: -0.053,inactive: -0.034,inactive: -0.052,inactive: -0.007,inactive: 0.041,inactive: -0.021,inactive: 0.093
ELOVL1 (UniProt Q9BW60),inactive: 0.015,inactive: 0.037,,inactive: -0.015,inactive: -0.223,inactive: -0.029,inactive: 0.05,inactive: 0.017,inactive: -0.011,inactive: 0,inactive: -0.103,inactive: -0.139,inactive: -0.051,inactive: -0.051,inactive: 0.032,inactive: -0.084,inactive: -0.087,inactive: 0.032,inactive: -0.078,inactive: -0.046
EML5 isoform 5 (UniProt Q05BV3),inactive: -0.331,,inactive: 0.123,inactive: -0.035,inactive: 0.011,inactive: -0.055,,inactive: -0.007,,inactive: 0,inactive: -0.111,,inactive: 0.237,inactive: -0.201,inactive: 1.09,inactive: 0.095,inactive: -0.021,inactive: 0.117,inactive: 0.021,
EHD2 (UniProt Q9NZN4),inactive: 0.016,inactive: 0.017,,inactive: 0.048,inactive: -0.031,inactive: -0.12,inactive: -0.019,inactive: -0.053,inactive: 0.046,inactive: -0.061,inactive: 0.001,inactive: -0.013,inactive: 0.007,inactive: -0.025,inactive: -0.02,inactive: 0.092,inactive: -0.034,inactive: 0.055,inactive: -0.06,inactive: -0.051
EIF4G3 isoform 3 (UniProt O43432),inactive: -0.076,inactive: -0.038,,inactive: -0.016,inactive: -0.019,inactive: 0.04,inactive: 0.519,inactive: -0.056,inactive: 0.031,inactive: -0.025,inactive: -0.15,inactive: 0.063,inactive: 0.002,inactive: 0,inactive: -0.003,inactive: -0.01,inactive: 0.032,inactive: -0.32,inactive: 0.142,
EEF1D isoform 2 (UniProt P29692),inactive: -0.04,inactive: -0.03,,inactive: 0.001,inactive: 0.107,inactive: -0.011,inactive: 0.053,inactive: 0.017,inactive: 0.078,inactive: -0.013,inactive: -0.038,inactive: 0.034,inactive: 0.036,inactive: -0.042,inactive: -0.016,inactive: 0.028,inactive: 0.028,inactive: -0.011,inactive: 0.022,inactive: -0.01
EIF4A1 (UniProt P60842),inactive: -0.029,inactive: -0.138,,inactive: 0.049,inactive: -0.03,inactive: -0.116,inactive: 0,inactive: 0.012,inactive: 0.071,inactive: -0.05,inactive: 0.061,inactive: -0.11,inactive: -0.009,inactive: -0.075,inactive: -0.004,inactive: -0.01,inactive: 0.004,inactive: -0.027,inactive: 0.016,inactive: -0.088
EIF4E isoform 2 (UniProt P06730),inactive: 0.04,inactive: 0.189,,inactive: -0.085,inactive: 0,inactive: -0.012,inactive: 0.008,inactive: 0.133,inactive: -0.023,inactive: -0.072,inactive: -0.002,inactive: -0.038,active: 0.346,inactive: -0.085,inactive: -0.083,inactive: 0.039,inactive: 0.112,active: 0.354,inactive: 0.039,active: 0.373
EGLN1 (UniProt Q9GZT9),inactive: -0.01,inactive: -0.074,,active: -0.296,inactive: 0.065,inactive: -0.027,inactive: 0.114,inactive: 0.03,inactive: 0.001,inactive: 0.002,active: -0.361,inactive: -0.07,inactive: -0.022,inactive: -0.004,inactive: 0.018,inactive: 0.018,inactive: 0.022,inactive: -0.074,inactive: 0.01,inactive: 0.009
ELOVL5 isoform 2 (UniProt Q9NYP7),inactive: -0.037,inactive: -0.084,,inactive: -0.085,inactive: -0.032,inactive: -0.016,inactive: -0.026,inactive: -0.135,inactive: 0.132,inactive: -0.048,,inactive: -0.157,inactive: -0.041,inactive: -0.224,inactive: -0.026,inactive: -0.05,inactive: -0.142,inactive: 0,inactive: 0.094,inactive: 0
ELOC (UniProt Q15369),inactive: 0.008,inactive: 0.01,,inactive: 0.035,inactive: 0.025,inactive: -0.033,inactive: -0.021,inactive: 0,inactive: -0.021,inactive: -0.014,inactive: 0.007,inactive: 0.04,inactive: 0.096,inactive: -0.009,inactive: -0.009,inactive: 0.033,inactive: -0.006,inactive: 0.011,inactive: -0.002,inactive: 0.105
EIF2B4 (UniProt Q9UI10),inactive: 0.281,,inactive: -0.058,inactive: 0.007,inactive: -0.095,inactive: 0.091,inactive: -0.044,inactive: 0.098,inactive: 0.042,inactive: -0.025,inactive: -0.016,,inactive: 0.127,inactive: 0.03,inactive: -0.147,inactive: 0.053,,inactive: 0.01,inactive: 0.111,inactive: -0.25
EIF4G1 isoform 8 (UniProt Q04637),inactive: -0.08,inactive: -0.36,,inactive: 0.034,inactive: -0.067,inactive: 0.008,inactive: 0.197,inactive: -0.017,inactive: 0.092,inactive: -0.05,inactive: 0.01,inactive: 0.067,inactive: -0.121,inactive: 0.09,inactive: -0.007,inactive: -0.003,inactive: -0.114,inactive: -0.369,inactive: -0.073,inactive: -0.27

# For reference, some entries already given.
Target,log2 fold change (saracatinib),log2 fold change (sotrastaurin),log2 fold change (alvocidib),log2 fold change (Tubastatin A),log2 fold change [1],log2 fold change (defactinib),log2 fold change (rucaparib),log2 fold change [2],log2 fold change (encorafenib),log2 fold change [3],log2 fold change [4],log2 fold change (filanesib),log2 fold change (zotarolimus),log2 fold change (idasanutlin),log2 fold change (alisertib),log2 fold change [5],log2 fold change (gefitinib),log2 fold change [6],log2 fold change (lapatinib),log2 fold change (pictilisib)
EEF1D isoform 2 (UniProt P29692),inactive: -0.04,inactive: -0.03,,inactive: 0.001,inactive: 0.107,inactive: -0.011,inactive: 0.053,inactive: 0.017,inactive: 0.078,inactive: -0.013,inactive: -0.038,inactive: 0.034,inactive: 0.036,inactive: -0.042,inactive: -0.016,inactive: 0.028,inactive: 0.028,inactive: -0.011,inactive: 0.022,inactive: -0.01
EIF4A1 (UniProt P60842),inactive: -0.029,inactive: -0.138,,inactive: 0.049,inactive: -0.03,inactive: -0.116,inactive: 0,inactive: 0.012,inactive: 0.071,inactive: -0.05,inactive: 0.061,inactive: -0.11,inactive: -0.009,inactive: -0.075,inactive: -0.004,inactive: -0.01,inactive: 0.004,inactive: -0.027,inactive: 0.016,inactive: -0.088

# Reference: the supplement of paper PMC10849652
